This passage reports binding results from PMC2894052.

By UniProt entry, the sequences of proteins in these tests, tags left out.
UniProt P13864: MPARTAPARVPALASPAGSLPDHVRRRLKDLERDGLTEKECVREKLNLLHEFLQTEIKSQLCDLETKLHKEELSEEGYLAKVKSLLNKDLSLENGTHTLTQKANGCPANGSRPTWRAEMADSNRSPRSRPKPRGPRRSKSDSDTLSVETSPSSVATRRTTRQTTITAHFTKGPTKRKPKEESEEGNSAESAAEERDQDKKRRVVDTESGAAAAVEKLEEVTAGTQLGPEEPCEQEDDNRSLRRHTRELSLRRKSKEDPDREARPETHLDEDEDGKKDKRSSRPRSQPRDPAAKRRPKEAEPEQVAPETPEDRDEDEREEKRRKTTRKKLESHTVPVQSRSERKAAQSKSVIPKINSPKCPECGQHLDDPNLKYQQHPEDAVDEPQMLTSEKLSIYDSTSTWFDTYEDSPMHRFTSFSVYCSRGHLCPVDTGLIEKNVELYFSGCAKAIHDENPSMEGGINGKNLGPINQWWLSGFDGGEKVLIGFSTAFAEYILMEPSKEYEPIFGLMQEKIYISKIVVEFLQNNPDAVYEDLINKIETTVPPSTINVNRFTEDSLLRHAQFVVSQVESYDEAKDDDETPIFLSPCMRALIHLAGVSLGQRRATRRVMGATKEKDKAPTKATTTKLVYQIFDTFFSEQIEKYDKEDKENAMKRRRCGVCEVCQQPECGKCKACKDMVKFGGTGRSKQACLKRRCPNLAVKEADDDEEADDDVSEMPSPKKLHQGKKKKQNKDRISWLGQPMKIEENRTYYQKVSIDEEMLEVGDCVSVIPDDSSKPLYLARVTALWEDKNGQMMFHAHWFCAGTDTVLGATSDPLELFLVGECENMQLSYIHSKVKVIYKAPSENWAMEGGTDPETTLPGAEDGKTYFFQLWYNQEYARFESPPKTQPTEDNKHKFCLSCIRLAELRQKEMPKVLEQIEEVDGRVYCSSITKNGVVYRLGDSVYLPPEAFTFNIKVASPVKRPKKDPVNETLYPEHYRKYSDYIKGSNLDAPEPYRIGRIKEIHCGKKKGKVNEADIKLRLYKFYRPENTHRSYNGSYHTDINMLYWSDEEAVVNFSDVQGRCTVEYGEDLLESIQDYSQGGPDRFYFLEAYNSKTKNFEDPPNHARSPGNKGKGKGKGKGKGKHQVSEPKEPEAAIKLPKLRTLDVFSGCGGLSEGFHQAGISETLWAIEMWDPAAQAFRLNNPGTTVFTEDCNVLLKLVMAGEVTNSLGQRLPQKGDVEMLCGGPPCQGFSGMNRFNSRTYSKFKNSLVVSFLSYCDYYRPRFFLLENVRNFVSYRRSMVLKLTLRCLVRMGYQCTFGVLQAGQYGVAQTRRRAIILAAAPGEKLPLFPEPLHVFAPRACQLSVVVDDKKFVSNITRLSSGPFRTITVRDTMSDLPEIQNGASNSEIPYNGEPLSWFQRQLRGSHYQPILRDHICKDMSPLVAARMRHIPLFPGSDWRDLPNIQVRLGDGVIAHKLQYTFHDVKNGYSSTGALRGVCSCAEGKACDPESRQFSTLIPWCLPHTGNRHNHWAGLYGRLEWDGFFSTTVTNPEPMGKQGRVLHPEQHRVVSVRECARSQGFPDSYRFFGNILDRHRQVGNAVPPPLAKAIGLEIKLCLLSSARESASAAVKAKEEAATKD
UniProt P17918: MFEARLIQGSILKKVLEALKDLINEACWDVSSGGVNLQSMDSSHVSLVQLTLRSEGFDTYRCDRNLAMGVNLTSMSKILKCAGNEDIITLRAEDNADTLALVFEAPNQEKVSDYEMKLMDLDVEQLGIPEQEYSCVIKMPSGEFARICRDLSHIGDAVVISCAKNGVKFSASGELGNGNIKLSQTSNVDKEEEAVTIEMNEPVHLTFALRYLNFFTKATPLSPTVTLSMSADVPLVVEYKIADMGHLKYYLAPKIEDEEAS

These are yes or no findings as the source states them, for the method shown. In cells and extracts the contact can be indirect. Some results given as binding are weak or reduced against the parent protein; the word gives no strength.

The target in assay [1] is Dnmt1, endogenous in Ntv-a glial precursor cells (mouse (endogenous in Ntv-a)) (UniProt P13864). In words: co-IP; Dnmt1-immunoprecipitation from Astro#40 and Ntv-a cells nucleofected with pCt or with pUP (expression of the UP chimera as competitor).
For assay [2] the target is unchanged. In words: co-IP; Dnmt1-PCNA-UHRF1 interactions in Ntv-a and Ntv-a/PDGF cells, without or with Akt and PKC inhibitors; the method is not named for this panel.
The target is the same in assay [3]. In words: proximity ligation; P-LISA of Dnmt1 and PCNA in cells nucleofected with pCt or with pUP (expression of the UP chimera as competitor); 100 cells of three independent experiments.

On to “PCNA, endogenous in Ntv-a glial precursor cells (from UniProt P17918 1-261)”, for which the binding result in assay [1], in assay [2] and in assay [3] was “binds” each time.

B1: UHRF1, endogenous in Ntv-a glial precursor cells (protein, UniProt Q8VDF2 1-782)
chain: MWIQVRTMDGKETHTVNSLSRLTKVQELRKKIEEVFHVEPQLQRLFYRGKQMEDGHTLFDYDVRLNDTIQLLVRQSLALPLSTKERDSELSDSDSGYGVGHSESDKSSTHGEGAAEADDKTVWEDTDLGLYKVNEYVDVRDNIFGAWFEAQVVQVQKRALSEDEPCSSSAVKTSEDDIMYHVKYDDYPEHGVDIVKAKNVRARARTVIPWENLEVGQVVMANYNVDYPRKRGFWYDVEICRKRQTRTARELYGNIRLLNDSQLNNCRIMFVDEVLMIELPKERRPLIASPSQPPPALRNTGKSGPSCRFCKDDENKPCRKCACHVCGGREAPEKQLLCDECDMAFHLYCLKPPLTSVPPEPEWYCPSCRTDSSEVVQAGEKLKESKKKAKMASATSSSRRDWGKGMACVGRTTECTIVPANHFGPIPGVPVGTMWRFRVQVSESGVHRPHVAGIHGRSNDGAYSLVLAGGYEDDVDNGNYFTYTGSGGRDLSGNKRTAGQSSDQKLTNNNRALALNCHSPINEKGAEAEDWRQGKPVRVVRNMKGGKHSKYAPAEGNRYDGIYKVVKYWPERGKSGFLVWRYLLRRDDTEPEPWTREGKDRTRQLGLTMQYPEGYLEALANKEKSRKRPAKALEQGPSSSKTGKSKQKSTGPTLSSPRASKKSKLEPYTLSEQQANLIKEDKGNAKLWDDVLTSLQDGPYQIFLSKVKEAFQCICCQELVFRPVTTVCQHNVCKDCLDRSFRAQVFSCPACRFELDHSSPTRVNQPLQTILNQLFPGYGSGR
B1: the binding result in assay [1] and in assay [2] was “binds” in each case.
